Measured values: PubChem BioAssay AID504834 (National Center for Advancing Translational Sciences (NCATS), 2011)
The campaign covered roughly 320,000 compounds. About 22,000 (6.9%) were called active. The inconclusive results got no clear call from the source; some entries with a clear call stand among them for comparison. Calls follow the shape of the dose curve; as a rule, active = well fitted inhibition curve with a large enough effect; inconclusive = small, poorly fitted or top-dose-only effect, or another doubt; inactive = no such curve, though single readings can be large or run the other way. Where the call is inconclusive, the potency comes from a doubtful curve fit.

Experiment: Primary qHTS for delayed death inhibitors of the malarial parasite plastid, 96 hour incubation
Details: P. falciparum luciferase reporter growth; series mostly up to 28.7 µM
In short: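 P. falciparum expressing integrated firefly luciferase grown in erythrocytes (2% hematocrit, 0.05% parasitemia final) with compounds for 96 hours at 37 C, 5% CO2. Growth inhibition read as loss of luminescence after adding luciferase detection reagent.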
Potency is read from the fitted curve at half-maximal effect.

Row | SMILES | Potency
1 | CCCCN(C)CCCNC(=O)C1(O)c2ccccc2NC(=O)N1c1ccc(Cl)cc1 (centres undefined) | active: 4.15 µM
2 | Cc1ccccc1N(Cc1cc(=O)[nH]c2ccccc12)C(=O)C(C)C | inconclusive: 9.28 µM [inhibitor, partial curve, poor fit]
3 | O=S(=O)(/C=C/c1ccccc1)Oc1ccccc1 | active: 3.29 µM
4 | O=C(CC(=O)Nc1ccccc1C(F)(F)F)Nc1ccccc1C(F)(F)F | inactive
5 | Cc1ccc(-c2cc(-c3ccc(C)o3)nc(N)c2C#N)cc1 | inconclusive: 10.4 µM [inhibitor, partial curve, poor fit]
6 | COCCNC(=O)CN1N=C(c2ccc(OC)cc2)CCC1=O | inactive
7 | Cc1ccc([N+](=O)[O-])cc1NC(=S)NC(=O)c1cccs1 | inactive
8 | CN(C(=O)COC(=O)CN1C(=O)c2cccc([N+](=O)[O-])c2C1=O)c1ccccc1 | inconclusive: 18.5 µM [inhibitor, single point]
9 | Cc1ccc(SCC(=O)NCC2COc3ccccc3O2)cc1 (centres undefined) | inconclusive: 7.38 µM [inhibitor, partial curve, poor fit]
10 | Cc1csc(NC(=O)CCC(=O)N(CC(=O)NC2CCCC2)Cc2ccccc2)n1 | inactive
11 | CN(C)S(=O)(=O)N1CCC(n2nccc2NC(=O)CCCc2ccccc2)CC1 | active: 5.22 µM
12 | O=C(Nc1ccc2oc(-c3ccncc3)nc2c1)c1ccc2c(c1)OCO2 | inactive
13 | CCCCNC(=O)Nc1nnc(-c2ccccc2)o1 | inconclusive: 9.28 µM [inhibitor, single point]
14 | COc1cc(OC)cc(C(=O)NCc2cc(C)nc3ccccc23)c1 | inconclusive: 0.586 µM [inhibitor, partial curve, poor fit]
15 | CCc1noc(C)c1C(=O)N(CC)CC(=O)NCc1ccc(Cl)cc1 | inactive
16 | Cc1ccc(NC(=O)NCC2CCN(Cc3cccc(Cl)c3)CC2)c(Cl)c1 | inconclusive: 8.28 µM [inhibitor, partial curve, poor fit]
17 | CC(=O)c1ccc(S(=O)(=O)N2CCN(CCOc3ccc(Br)cc3)CC2)cc1 | inconclusive: 11.7 µM [inhibitor, single point]
18 | CCN(C(=O)C1CCN(c2nc(-c3ccc(OC)cc3)no2)CC1)c1ccccc1 | inconclusive: 18.5 µM [inhibitor, single point]
19 | CCOC(=O)c1c(NC(=O)CN2CCCCC2)sc(C)c1C | inactive
20 | Cc1nc2nc[nH]n2c(=O)c1NS(=O)(=O)c1ccc([N+](=O)[O-])cc1 | inconclusive: 13.1 µM [inhibitor, partial curve]
21 | COc1ccc(OC)c2[nH]c(=O)c(CCNC(=O)CC(C)C)cc12 | inconclusive: 18.5 µM [inhibitor, single point]
22 | CCOc1cc(NC(=O)c2cccs2)c(OCC)cc1NC(=O)c1ccco1 | inconclusive: 13.1 µM [inhibitor, single point]
23 | CCOC(=O)c1cc2c(=O)n3ccccc3nc2n(Cc2ccco2)c1=NC(=O)c1ccccc1OC | inconclusive: 0.0657 µM [inhibitor, full curve, poor fit]

Rewritten as a markdown table: entries from further up

| Row | SMILES | Potency |
| --- | --- | --- |
| 12 | O=C(Nc1ccc2oc(-c3ccncc3)nc2c1)c1ccc2c(c1)OCO2 | inactive |
| 13 | CCCCNC(=O)Nc1nnc(-c2ccccc2)o1 | inconclusive: 9.28 µM [inhibitor, single point] |
| 14 | COc1cc(OC)cc(C(=O)NCc2cc(C)nc3ccccc23)c1 | inconclusive: 0.586 µM [inhibitor, partial curve, poor fit] |
| 15 | CCc1noc(C)c1C(=O)N(CC)CC(=O)NCc1ccc(Cl)cc1 | inactive |
| 16 | Cc1ccc(NC(=O)NCC2CCN(Cc3cccc(Cl)c3)CC2)c(Cl)c1 | inconclusive: 8.28 µM [inhibitor, partial curve, poor fit] |

Following part:

Row | SMILES | Potency
24 | O=C(CSc1nccn1-c1ccccc1)N1CCc2ccccc21 | inconclusive: 7.38 µM [inhibitor, partial curve, poor fit]
25 | CCCCCCC[C@H](N)[C@H](O)C(=O)N(C)[C@@H](CCS(C)=O)C(=O)N[C@@H](Cc1ccc(O)cc1)C(=O)N[C@@H](Cc1ccc(O)cc1)C(=O)O (some centres undefined) | inconclusive: 18.5 µM [inhibitor, single point]
26 | COn1c(C)c(C(C)=O)c2c3nonc3ccc21 | inconclusive: 18.5 µM [inhibitor, single point]
27 | COc1cc(CC(NC(C)=O)C(=O)NC2CCN(c3c(Cc4ccccc4)c(C)nc4ncnn34)CC2)cc(OC)c1 (centres undefined) | inactive
28 | CCC(=O)NC(c1cccc([N+](=O)[O-])c1)c1c(O)ccc2ccccc12 (centres undefined) | inconclusive: 18.5 µM [inhibitor, single point]
29 | Cc1ccc(C)c(SCC(=O)OCC(=O)c2ccco2)c1 | inactive
30 | COc1ccccc1-c1nc2ccccc2c(=O)n1NC(=O)c1cccs1 | inactive
31 | O=C(NC1CCN(Cc2ccccc2)CC1)c1ccc2c(c1)[nH]c(=O)n2Cc1ccc(F)cc1 | inactive
32 | C=C(C)c1cccc(C(C)(C)NC(=O)NCCCn2ccnc2)c1 | inconclusive: 10.4 µM [inhibitor, single point]
33 | COc1cc(C(=O)NCCC2=CCCCC2)ccc1OCc1c(C)noc1C | inconclusive: 13.1 µM [inhibitor, partial curve, poor fit]
34 | Cc1cc(C)nc(NS(=O)(=O)c2ccc(NS(=O)(=O)c3ccc(C#N)cc3)cc2)n1 | inconclusive: 9.28 µM [inhibitor, single point]
35 | CCOc1ccc(Nc2ccc([N+](=O)[O-])c3nonc23)cc1 | inconclusive: 10.4 µM [inhibitor, single point]
36 | CCN(CC)CCOC(=O)c1cccc2c1-c1ccccc1C2O (centres undefined) | inconclusive: 18.5 µM [inhibitor, single point]
37 | N#C/C(=C\c1cccs1)C(=O)N1CCOCC1 | inactive
38 | N#C/C(=C\c1ccc2c(c1)OCO2)C(=O)NCc1ccco1 | inactive
39 | Cc1ccc(NC(=O)CCc2ccc(S(=O)(=O)NC3CCCCC3)cc2)cc1 | inconclusive: 20.8 µM [inhibitor, single point]
40 | Cc1ccc(S(C)(=O)=O)cc1C(=O)OCC(=O)N(Cc1ccccc1)Cc1ccccc1 | inconclusive: 0.586 µM [inhibitor, full curve, poor fit]
41 | CCOC(=O)c1ccccc1NC1OC(=O)c2ccccc21 (centres undefined) | inconclusive: 1.04 µM [inhibitor, partial curve, poor fit]
42 | CN(C)CCCNc1nc(-c2ccccc2)nc2ccccc12 | inconclusive: 7.38 µM [inhibitor, partial curve, poor fit]
43 | O=S1(=O)N=C(Nc2ccc(O)c(CN3CCCCC3)c2)c2ccccc21 | inconclusive: 20.8 µM [inhibitor, partial curve, poor fit]
44 | Cc1cc2c(sc3ccccc32)c(C)n1 | inactive
45 | Cc1noc(C)c1CSCC(=O)N(CCC(C)C)c1c(N)n(Cc2ccccc2)c(=O)[nH]c1=O | inconclusive: 11.7 µM [inhibitor, single point]
46 | O=S(=O)(N1CCCCCC1)N1CCNCC1 | inconclusive: 11.7 µM [inhibitor, single point]

Row | SMILES | Potency
47 | CCCSc1ccc([C@H]2N[C@@](CC(C)C)(C(=O)OC)[C@H]3C(=O)N(C)C(=O)[C@@H]23)cc1 | inconclusive: 10.4 µM [inhibitor, single point]
48 | Cc1ccccc1N1Cc2ccccc2C1 | inactive
49 | Cc1nc(SCC#N)c2c(C)c(C)sc2n1 | active: 9.28 µM
50 | CCOC(=O)c1sc(N(Cc2ccccc2)C(=O)COC(=O)c2ccc(O)cc2)nc1C | inconclusive: 18.5 µM [inhibitor, single point]
51 | O=C(NNC(=O)c1csc(-c2cccnc2)n1)c1ccccc1 | active: 10.4 µM
52 | CC(=O)NC(CCS(C)(=O)=O)C(=O)N1CCc2ccccc21 (centres undefined) | inconclusive: 18.5 µM [inhibitor, single point]
53 | Cc1ccc(Nc2nnc(SC(C)C(=O)NCC3CCCO3)s2)cc1C (centres undefined) | inconclusive: 11.7 µM [inhibitor, partial curve]
54 | COc1ccc(/C=C(\NC(=O)c2cccs2)C(=O)Nc2cccc3ccccc23)cc1OC | inconclusive: 0.131 µM [inhibitor, partial curve, poor fit]
55 | COc1ccc(N=Nc2[nH]c3ccc(C)cc3c2O)cc1 | inconclusive: 14.7 µM [inhibitor, partial curve, poor fit]
56 | O=C(NCc1cccnc1)C12CC3CC(CC(C3)C1)C2 | inactive
57 | COc1ccc(CCNC(=O)Cc2ccc(C)cc2)cc1OC | inconclusive: 18.5 µM [inhibitor, single point]
58 | CC(=O)c1cccc(NC(=O)Nc2ccc(C)cc2)c1 | inconclusive: 11.7 µM [inhibitor, single point]
59 | CCN1CCN(C(=O)COc2ccc(S(=O)(=O)N3CCOCC3)cc2Cl)CC1 | inconclusive: 9.28 µM [inhibitor, single point]
60 | COc1cc(C(=O)Nc2cc(C(F)(F)F)ccc2N2CCOCC2)ccc1OCC(=O)N1CCOCC1 | inactive
61 | CCn1c(=O)c([N+](=O)[O-])c(NCCc2ccccc2)c2ccccc21 | inconclusive: 18.5 µM [inhibitor, single point]
62 | CCSc1nc(=S)cc(C)[nH]1 | inconclusive: 10.4 µM [inhibitor, partial curve]
63 | O=C(CN1C(=O)NC2(CCc3ccccc32)C1=O)NCC(=O)Nc1ccc(F)cc1 (centres undefined) | inactive
64 | COC(=O)CN1C(=S)N(c2ccc(OC)cc2)C(=O)/C1=C/c1ccc(OC)cc1 | inactive
65 | COc1ccccc1CNC(=O)Cn1cc([N+](=O)[O-])ccc1=O | inactive
66 | NC(=O)c1ncn(C2OC(CO)C(O)C2O)c1N (centres undefined) | inconclusive: 19 µM [inhibitor, single point]
67 | Cc1cccc(NC(=O)/C(C#N)=C/c2cn(CC(=O)NCc3ccco3)c3ccccc23)c1C | inconclusive: 9.28 µM [inhibitor, single point]
68 | O=C(O)c1ccc(CNCc2cc(Cl)ccc2O)cc1 | inconclusive: 4.65 µM [inhibitor, single point]
69 | NC(=O)C1CCN(c2nc(-c3ccc(Br)cc3)cs2)CC1 | inconclusive: 18.5 µM [inhibitor, single point]
